This data set concerns the target BsParB (Spo0J) (Bacillus subtilis) (UniProt P26497). The experiment in a line: in vitro co-condensation (phase separation) imaging. The conditions noted are these: Assay buffer; ParB storage buffer 50 mM Tris-HCl pH 7.5, 300 mM NaCl, 10% glycerol; 2 mM CTP where stated; recombinant protein; protein details: N-terminal …; label: 5'-Cy5 on upper strand.

The chains behind the UniProt entries cited, without tags or fusion partners. Where a name states a change or a piece, a line headed by the entry shows the natural chain unless it says otherwise.
UniProt P26497: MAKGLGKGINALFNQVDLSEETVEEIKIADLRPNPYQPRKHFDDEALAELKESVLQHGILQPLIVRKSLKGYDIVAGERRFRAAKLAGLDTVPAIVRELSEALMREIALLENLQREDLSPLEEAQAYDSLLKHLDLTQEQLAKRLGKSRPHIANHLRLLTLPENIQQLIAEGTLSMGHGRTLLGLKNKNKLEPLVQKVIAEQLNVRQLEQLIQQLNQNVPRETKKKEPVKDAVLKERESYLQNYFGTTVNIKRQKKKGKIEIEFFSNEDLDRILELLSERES

Construct, isoform or probe ends are uncertain for at least one entry. At least one verdict was read from the data and is not stated in words by the source.

On to “TCGATGCATACGTGACTGTTTCACGTGAAACATCGATGCATACGTGACATTC (double strand) [Cy5-parS]”, for which the binding result is recorded as “binds”.

For the origin of these results see paper PMC11317135.
